Taken from: PubChem BioAssay AID652243 (Drosophila RNAi Screening Center, 2013)

Aim: 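Fly regulators of androgen-dependent reporter output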 (primary screen)
Cells: Drosophila S2R+ cells
Reagent: long dsRNA against Drosophila genes
Timing: 72 h (48 h, then 24 h hormone)
Conditions: synthetic androgen R1881 at 10 nM for 24 h
Read-out: 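Firefly light from an androgen-responsive reporter and Renilla control light per well, raw and unnormalised, for each of two replicates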
Direction: firefly reporter light: higher = more light from androgen-responsive reporter; Renilla control light: higher = more constitutive control signal (cell number, transfection)
Call rule: 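Across duplicate plates, a knock-down whose log firefly/Renilla ratio shifted a set fold down or up from the GFP/LacZ control mean was a hit; the downward cut appears as both 1.5 and 3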
Calls: active = hit: reporter lowered or raised; inactive = no hit
The screen tested about 24,000 reagents; below is a random part of those with a known target gene and a result. In the full data, 246 (1%) were called active. 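Plates not normalised; calls are printed but the firefly/Renilla ratio behind them is not deposited; fold cut for lowering reported inconsistently.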 Raw values are not corrected between plates. Unmarked entries are inactive. Names joined by + are all predicted targets of the reagent. Not stated in the record: the amount of reagent.

Rbbp5 (Retinoblastoma binding protein 5) [DRSC11778]
- firefly reporter light, replicate 1: 1.33e5
- firefly reporter light, replicate 2: 94334
- Renilla control light, replicate 1: 1.35e6
- Renilla control light, replicate 2: 1.63e6

CG30060 [DRSC05419]
- firefly reporter light, replicate 1: 1.61e5
- firefly reporter light, replicate 2: 1.57e5
- Renilla control light, replicate 1: 4.29e5
- Renilla control light, replicate 2: 4.47e5

CG14990 [DRSC08449]
- firefly reporter light, replicate 1: 2.10e5
- firefly reporter light, replicate 2: 1.30e5
- Renilla control light, replicate 1: 1.84e6
- Renilla control light, replicate 2: 1.04e6

hng1 (hinge1) [DRSC04555]
- firefly reporter light, replicate 1: 8.14e5
- firefly reporter light, replicate 2: 6.58e5
- Renilla control light, replicate 1: 2.04e6
- Renilla control light, replicate 2: 2.09e6

atlas [DRSC04183]
- firefly reporter light, replicate 1: 2.67e5
- firefly reporter light, replicate 2: 2.46e5
- Renilla control light, replicate 1: 1.41e6
- Renilla control light, replicate 2: 1.35e6

CG4045 [DRSC18518]
- firefly reporter light, replicate 1: 97616
- firefly reporter light, replicate 2: 1.14e5
- Renilla control light, replicate 1: 1.03e6
- Renilla control light, replicate 2: 7.61e5

CG1317 [DRSC08305]
- firefly reporter light, replicate 1: 9.08e5
- firefly reporter light, replicate 2: 4.86e5
- Renilla control light, replicate 1: 1.65e6
- Renilla control light, replicate 2: 1.40e6

IP3K1 (Inositol 1,4,5-triphosphate kinase 1) [DRSC02734]
- firefly reporter light, replicate 1: 7.19e5
- firefly reporter light, replicate 2: 1.05e6
- Renilla control light, replicate 1: 2.16e6
- Renilla control light, replicate 2: 2.17e6

CG14107 [DRSC10110]
- firefly reporter light, replicate 1: 1.05e5
- firefly reporter light, replicate 2: 51575
- Renilla control light, replicate 1: 1.27e6
- Renilla control light, replicate 2: 6.68e5

CG14107 [DRSC25136]
- firefly reporter light, replicate 1: 8.15e5
- firefly reporter light, replicate 2: 7.01e5
- Renilla control light, replicate 1: 7.07e5
- Renilla control light, replicate 2: 6.92e5

CG18477 + CG31780 [DRSC01955]
- firefly reporter light, replicate 1: 1.03e5
- firefly reporter light, replicate 2: 1.63e5
- Renilla control light, replicate 1: 1.47e6
- Renilla control light, replicate 2: 1.91e6

Sodh1 (Sorbitol dehydrogenase 1) [DRSC12605]
- firefly reporter light, replicate 1: 1.33e5
- firefly reporter light, replicate 2: 1.53e5
- Renilla control light, replicate 1: 1.00e6
- Renilla control light, replicate 2: 1.54e6

Sodh1 (Sorbitol dehydrogenase 1) [DRSC26280]
- firefly reporter light, replicate 1: 4.03e5
- firefly reporter light, replicate 2: 4.71e5
- Renilla control light, replicate 1: 6.00e5
- Renilla control light, replicate 2: 5.53e5

Just “Renilla control light, replicate 1” (2 entries from above):
IP3K1 (Inositol 1,4,5-triphosphate kinase 1) [DRSC02734]: 2.16e6
CG14107 [DRSC10110]: 1.27e6
